Measured values published in PubChem BioAssay AID2685 (National Center for Advancing Translational Sciences (NCATS), 2010).
This is one part of the list. Shown are side measurements of this screen, not its main read-out; they come without a call. The list favours compounds with an active or inconclusive main result. Potencies come from curve fits of mixed quality, noted in brackets.

Experiment: qHTS Assay for Lipid Storage Modulators in Drosophila S3 Cells;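 for cell number change: cells counted by Cell Tracker Red CMTPX staining in the red channel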
Conditions: BODIPY lipid droplet fluorescence, 18-24 h; for cell number change: measured here: cell count max response, cells fed with added oleic acid
Outline: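 Laser-scanning cytometry quantifies lipid droplet accumulation (500–530 nm total intensity; droplet/cell object ratio) in oleic acid-fed (400 uM added) Drosophila S3 cells treated with a concentration series. 20 uM Triacsin C defined 100% inhibition.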

[1] = measured here: cell number channel AC50, cells fed with added oleic acid
[2] = measured here: lipid fluorescence (Fed channel) AC50, cells fed with added oleic acid

Row | Compound | cell number change [%] | AC50 [1] | AC50 [2]
1 | O=C(NCCN1CCOCC1)c1ccc(F)cc1 | -47.9 | 0.0651 µM [falling, full curve, poor fit] | 16.4 µM [falling, partial curve]
2 | O=C(O)CCC(=O)NCc1cn(-c2ccccc2)nc1-c1cccc(Br)c1 |  | 2.91 µM [rising, single point] | 8.2 µM [rising, partial curve, poor fit]
3 | CCN(CC)CCCN(C(=O)c1ccccc1F)c1nc(-c2ccc(OC)cc2)cs1 | -9.98 |  | 
4 | Cc1cccc(CC(=O)NCCn2c(C)cc3ccccc32)c1 | 56.7 | 20.6 µM [rising, single point] | 
5 | CCc1ccc(OCC(=O)O/N=C(\N)c2ccncc2)c(Br)c1 | 13.6 |  | 3.66 µM [rising, single point]
6 | CCCCCCc1nc2ccccc2c(=O)n1NC(=O)c1c(O)c2cccc3c2n(c1=O)CCC3 | 19.4 |  | 18.4 µM [rising, partial curve]
7 | CCOc1ccc(CCNC(=O)COC(=O)c2ccc3c(c2)OCCO3)cc1OCC | -48.5 | 4.11 µM [falling, partial curve] | 5.17 µM [falling, partial curve]
8 | O=C(NCc1ccccn1)c1cccc(S(=O)(=O)Nc2ccc(SC(F)F)cc2)c1 | 25 |  | 
9 | COC(=O)c1cc2oc(C)cc2n1CC(=O)N(C)c1ccccc1 | -15.8 |  | 5.8 µM [falling, full curve, poor fit]
10 | CN(c1ccccc1)S(=O)(=O)c1ccc2[nH]c(=O)oc2c1 | -18.4 |  | 
11 | CC(OC(=O)c1cc(=O)c2ccccc2o1)C(=O)Nc1ccc(N(C)C)cc1 (stereo not given) | 1.88 |  | 2.91 µM [rising, single point]
12 | Cc1ccc(Cl)cc1NC(=O)NCCN1CCCCC1 | 34.1 | 13 µM [rising, partial curve, poor fit] | 
13 | O=C(Nc1nnc(-c2ccccc2Cl)o1)c1ccco1 |  | 6.51 µM [falling, single point] | 6.51 µM [falling, single point]
14 | O=C1NC2C(NC(=O)N2C2CCCCC2)N1C1CCCCC1 (stereo not given) | -39.9 | 0.517 µM [falling, full curve] | 0.411 µM [falling, full curve]
15 | O=C(NCc1ccccc1Cl)c1ccc(CS(=O)(=O)c2ccccc2)o1 | 20.2 |  | 6.51 µM [rising, single point]
16 | O=C(NCCN1CCOCC1)Nc1ccc(F)cc1 | 35.4 | 2.59 µM [rising, full curve] | 
17 | COc1ccc(F)cc1CN1CCN(c2ncnc3scc(-c4ccccc4)c23)CC1 | 30.5 | 0.731 µM [rising, full curve, poor fit] | 2.91 µM [rising, full curve]
18 | CN(C(=O)CSc1cc(C(=O)c2nccn2C)c2ccccc2n1)c1ccccc1 | -18.7 |  | 32.6 µM [falling, single point]
19 | CSCCC(NC(=O)c1ccccc1)C(=O)N1CCN(Cc2ccc(Cl)cc2)CC1 (stereo not given) | -4.13 |  | 5.8 µM [falling, single point]
20 | COc1ccc(C2CC(c3ccc(Br)cc3)=NN2C(=S)Nc2ccccc2)cc1 (stereo not given) | 35 | 4.11 µM [rising, full curve, poor fit] | 
21 | CC1CCCN(C(=S)Nc2ccc(S(=O)(=O)N3CCCCC3)cc2)C1 (stereo not given) | 14.3 | 0.116 µM [falling, full curve] | 0.116 µM [falling, full curve]
22 | OCC1(Cc2ccccc2)CCN(Cc2cccc(F)c2F)CC1 | -13.4 |  | 0.517 µM [falling, full curve, poor fit]
23 | CC1(C)C(c2cccs2)=[N+]([O-])C2(CCCCC/C2=N\NC(N)=S)N1O (stereo not given) | -0.447 |  | 5.17 µM [rising, partial curve]
24 | O=Cc1c(Sc2ccccc2)nc2ccccn2c1=O | 136 | 20.6 µM [rising, partial curve] | 
25 | CC(=O)Nc1ccc(S(=O)(=O)N(C)CC(=O)NCCC2=CCCCC2)cc1 | -14.1 |  | 
26 | CCn1nc(C)c(/C=N/NC(=S)Nc2ccc(Cl)cc2Cl)c1C | 43.6 | 1.84 µM [rising, full curve] | 0.259 µM [rising, full curve, poor fit]
27 | N#Cc1c(N2CCCCC2)nc(N)c2c(N)nc3c(c12)CC(CCl)O3 (stereo not given) |  | 0.58 µM [rising, single point] | 6.51 µM [rising, single point]
28 | CC(=O)Nc1c2c(nn1-c1ccccc1C)CS(=O)(=O)C2 | 39.4 | 29.1 µM [rising, single point] | 
29 | CN(CC(=O)NC1CCN(Cc2ccccc2)CC1)S(=O)(=O)c1ccc(Br)s1 | 23.4 |  | 29.1 µM [falling, single point]

Only cell number change [%] and AC50 [1], for two of the compounds above:

| Row | Compound | cell number change [%] | AC50 [1] |
| --- | --- | --- | --- |
| 2 | O=C(O)CCC(=O)NCc1cn(-c2ccccc2)nc1-c1cccc(Br)c1 |  | 2.91 µM [rising, single point] |
| 11 | CC(OC(=O)c1cc(=O)c2ccccc2o1)C(=O)Nc1ccc(N(C)C)cc1 (stereo not given) | 1.88 |  |
